# Patent US20030068808A1, “Methods for generating antibiotic resistant microbes and novel antibiotics” (priority 2001, published 2003)
# At least one compound was matched to its structure with a doubt left.
# How the values were obtained:
# Type in all cases: cell-based
# [1] = system: pT7PMSR3 cultures resistant to Tet; assay: Stability of antibiotic resistance: replated cells grown at 1X MIC, PMSR3; settings: inoculated at 1×10^7 cells/ml, confluence at 4 hours after inoculation
# [2] = system: pT7PMS134 cultures resistant to Tet; assay: Stability of antibiotic resistance: replated cells grown at 1X MIC, PMS134; settings: inoculated at 1×10^7 cells/ml, confluence at 4 hours after inoculation
# pT7Ea control culture = assay: Stability of antibiotic resistance: replated cells grown at 1X MIC, control; settings: inoculated at 1×10^7 cells/ml, grown for 6 hours
smiles,measurement,setting,value
CN(C)[C@@H]1C(O)=C(C(N)=O)C(=O)[C@@]2(O)C(O)=C3C(=O)c4c(O)cccc4[C@@](C)(O)[C@H]3C[C@@H]12 [Tetracycline],growth in the presence of Tet (pT7PMSR3),[1],grew to confluence
same,growth in the presence of Tet (pT7PMS134),[2],grew to confluence
same,growth in the presence of Tet (pT7Ea control),pT7Ea control culture,did not grow
